Binding data for three substances are collected here from paper PMC10710042.

The chains behind the UniProt entries cited, without tags or fusion partners.
UniProt P98175: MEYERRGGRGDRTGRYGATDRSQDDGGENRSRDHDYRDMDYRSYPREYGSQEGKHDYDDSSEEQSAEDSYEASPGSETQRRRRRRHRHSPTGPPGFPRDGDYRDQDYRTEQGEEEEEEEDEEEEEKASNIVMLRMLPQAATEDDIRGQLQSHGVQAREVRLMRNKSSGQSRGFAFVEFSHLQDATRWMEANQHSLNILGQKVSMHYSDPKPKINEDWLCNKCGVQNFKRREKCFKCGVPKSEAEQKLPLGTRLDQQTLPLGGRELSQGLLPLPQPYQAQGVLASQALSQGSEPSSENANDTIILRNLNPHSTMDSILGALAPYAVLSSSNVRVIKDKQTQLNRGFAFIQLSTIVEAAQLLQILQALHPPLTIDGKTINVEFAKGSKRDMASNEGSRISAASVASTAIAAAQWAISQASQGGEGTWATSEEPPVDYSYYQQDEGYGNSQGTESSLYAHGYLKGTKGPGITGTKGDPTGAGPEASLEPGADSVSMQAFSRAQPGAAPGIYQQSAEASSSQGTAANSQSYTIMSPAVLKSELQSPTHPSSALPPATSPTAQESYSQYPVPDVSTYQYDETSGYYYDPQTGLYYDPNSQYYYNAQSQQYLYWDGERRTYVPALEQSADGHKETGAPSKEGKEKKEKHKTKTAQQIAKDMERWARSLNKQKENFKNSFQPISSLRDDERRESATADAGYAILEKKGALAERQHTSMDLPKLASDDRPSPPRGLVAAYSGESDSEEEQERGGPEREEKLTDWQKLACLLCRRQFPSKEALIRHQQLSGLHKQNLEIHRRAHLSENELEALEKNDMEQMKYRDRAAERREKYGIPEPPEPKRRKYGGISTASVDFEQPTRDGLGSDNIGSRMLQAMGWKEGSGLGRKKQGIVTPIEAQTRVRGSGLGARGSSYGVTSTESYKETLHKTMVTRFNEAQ
UniProt P01106: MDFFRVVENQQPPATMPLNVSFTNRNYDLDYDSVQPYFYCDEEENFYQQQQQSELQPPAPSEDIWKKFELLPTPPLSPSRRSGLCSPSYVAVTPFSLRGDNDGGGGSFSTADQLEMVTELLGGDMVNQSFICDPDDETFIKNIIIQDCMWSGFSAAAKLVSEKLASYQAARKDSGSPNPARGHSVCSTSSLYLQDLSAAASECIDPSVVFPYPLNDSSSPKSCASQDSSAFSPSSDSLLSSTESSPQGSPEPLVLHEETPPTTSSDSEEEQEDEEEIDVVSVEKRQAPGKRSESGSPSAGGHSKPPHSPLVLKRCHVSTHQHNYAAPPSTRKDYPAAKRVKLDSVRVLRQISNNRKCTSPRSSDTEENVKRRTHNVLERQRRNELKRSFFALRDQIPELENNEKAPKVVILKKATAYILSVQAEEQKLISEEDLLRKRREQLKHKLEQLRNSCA

These are yes or no findings as the source states them, for the method shown. Binding seen in cells or lysates may run through a third protein. Some binding calls cover weakened binding; strength is not graded here.

Assay [1] addresses His-tagged RBM10 (UniProt P98175). As to the kind of experiment: pull-down; His-tagged RBM10 from E. coli on Ni-NTA agarose beads as bait, incubated with cell lysates for 1 to 2 h at RT or at 4 °C; washed with 50 mM Tris/HCl pH 8.0, 0.5% NP-40, 1 mM EDTA, 150 mM NaCl, 10% glycerol; immunoblot; only the target purified.
Assay [2] has as its target Flag-RBM10 (UniProt P98175). Briefly: co-IP; cell fractionation of transfected HCT116 p53-/- or H1299 cells, then IP with Flag-beads; complexes found in the nuclear fraction.
For assay [3], the target named is Flag-RBM10 (UniProt P98175). Briefly: co-IP; both proteins overexpressed from plasmids in HCT116 p53-/- (H1299 in one legend); IP with anti-Flag or anti-HA antibodies or beads at 4 °C; immunoblot.
Assay [4] addresses endogenous c-Myc (human (endogenous in HCT116)) (UniProt P01106). As to the kind of experiment: co-IP; endogenous proteins in HCT116 p53+/+ and HCT116 p53-/- lysates; IP with anti-c-Myc or anti-RBM10 antibody, IgG as control; immunoblot.

Take “endogenous c-Myc (from UniProt P01106 1-454)”: the binding entry in assay [1] is reported as “binds”.

Regarding HA-c-Myc (from UniProt P01106 1-454), the binding result in assay [1], in assay [2] and in assay [3] was “binds” throughout. With “endogenous RBM10 (RNA-binding motif protein 10) (from UniProt P98175 1-930)”, in assay [4], the binding entry is given as “binds”.
